# Laboratory results from the supplement of paper PMC3334620.
# Over roughly 33,000 sequences, “E-score (-0.5 to 0.5)” has its median near -8e-05; the highest 2% begin near 0.23. The list shows a part of the results.
# Target: T1, Nrg2 (UniProt P38082)
# T1 sequence: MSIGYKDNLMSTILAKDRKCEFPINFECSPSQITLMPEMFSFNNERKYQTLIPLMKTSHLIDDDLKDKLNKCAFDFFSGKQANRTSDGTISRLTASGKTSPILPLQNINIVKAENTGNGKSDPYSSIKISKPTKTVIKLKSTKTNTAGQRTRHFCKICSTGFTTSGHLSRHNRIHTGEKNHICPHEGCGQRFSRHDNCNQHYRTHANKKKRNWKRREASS
# Test: PBM E-score (8-mer binding enrichment) (E-score (-0.5 to 0.5)); higher = stronger / more preferred TF binding
# Conditions: protein concentration: 100 nM; construct: GST-full length
# In short: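 Full-length yeast transcription factors or their DNA-binding domains, GST-tagged and expressed with PURExpress, were applied at about 100-200 nM to universal all-10-mer Agilent arrays. These arrays had been made double-stranded by primer extension on fresh or once-stripped slides. Detection used fluorescent anti-GST, normalisation used masliner, and E-scores for ungapped eight-base words pooled with reverse complements came from the Universal PBM Analysis Suite.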
row,Sequence,PBM E-score
1,TGCGTAAA,-0.0469
2,GCTGTGAA,0.0603
3,CCTTGCAA,0.0406
4,ACAGGTTA,-0.014
5,CCCAACCA,0.0948
6,ACGGGAGA,-0.0998
7,ATTCAAAC,0.0759
8,AGTAGTCG,0.047
9,GTTCACCA,-0.057
10,AATTCATC,-0.115
11,AATGAGCA,-0.0915
12,AGCCCCAG,-0.0267
13,GAAAACCC,0.184
14,CGTTCTTC,0.0246
15,GCGAAGAC,-0.16
16,CGGAAGTA,-0.0225
17,GATAATAA,0.19
18,CGGGCATC,-0.24
19,GATATTGC,-0.015
20,CCCCACCG,0.026
21,AGGTGCCG,0.0309
22,GCCGAAGC,-0.14

# Single values from above.
# In PBM E-score, GATAATAA has the entry 0.19
# In PBM E-score, ACAGGTTA has the entry -0.014
# In PBM E-score, GTTCACCA has the entry -0.057
# In PBM E-score, AATGAGCA has the entry -0.0915

# Additional records

row,Sequence,PBM E-score
1,ATGCCCAG,-0.0939
2,CAGTAAGC,-0.017
3,CGCTAAAC,-0.0747
4,CCGTAGAG,-0.0733
5,AAGGCATT,-0.17
6,CCTTATTA,0.135
7,AATTGACT,0.132
8,ACCCACTC,0.0398
9,CCCCAGAG,-0.197
10,CAGGACTC,-0.203
11,AAAGGTGT,-0.0261
12,CACGTACC,-0.144
13,ACCAGCCA,-0.0291
14,ATCGGCCA,-0.037
15,CGTGTCAC,-0.0649
16,GACGACGC,0.0588
17,ATACGTCA,0.0277
18,AGCGGTCG,-0.305
19,ACCTCCCA,-0.329
20,ATGTTCTA,0.00747
21,AAACTTGC,0.148
22,GACTGACC,-0.188

row,Sequence,PBM E-score
1,ACCCACAA,0.213
2,AGAGCAGC,-0.134
3,CAACTCGG,0.0991
4,TCCATTCA,0.0643
5,GGCTGCTA,-0.0689
6,CCGCCCTC,-0.112
7,GCACTAGC,0.00252
8,GACCAATA,0.0307
9,AGTGCCAT,-0.152
10,CCGTCGGA,-0.0984
11,ACCATGCT,-0.0336
12,CAAGTTTC,-0.00709
13,CTAGCTGC,-0.135
14,TACCAGAA,0.215
15,AGAAATGA,0.0395
16,ATGACCCC,0.0144
17,ACCGACTC,0.00596
18,CGTTCGAC,-0.0963
19,GGGCTGAC,-0.0165
20,AAGTAGAG,-0.143
21,ACGGGTAC,-0.171
22,CTATTACC,-0.143

row,Sequence,PBM E-score
1,CCAGTGGC,0.0732
2,TAAAATGA,0.254
3,AAGGTCGG,-0.0301
4,CCCACTAA,0.134
5,ACACATCT,0.0216
6,AGCTTCTA,-0.148
7,AATAAGTG,-0.0251
8,GAATCCTC,-0.1
9,CCCAGCTC,0.018
10,CAGAGTCC,0.0801
11,CGTGGCAC,-0.165
12,ACGTACAA,0.0534
13,CTTTAGGC,-0.219
14,CCCTAGCC,-0.0659
15,GCCCGGCA,-0.287
16,ATGGGAGG,0.0102
17,ATGACGCA,0.151
18,CTCAACGA,-0.0772
19,CGGGTGTA,-0.0883
20,TACAGCGA,-0.147
